Here are results for one molecule from publication PMC7460240 (Biomedicines, 2020).

The subject of the assay is H295R cells. To be noted: 7 days, 0.5 µM astemizole.

On to `COc1ccc(CCN2CCC(Nc3nc4ccccc4n3Cc3ccc(F)cc3)CC2)cc1` [astemizole, Astemizole], for which the “dxr-IC50 decrease by astemizole (anti-proliferative effect)” value was “about three times”.
